Measurements as given in PMC11371196.
Results are given in words; binding and its absence hold for the method and conditions named. Binding seen in cells or lysates may run through a third protein. Some entries that bind do so weakly or less than the wild type. Where a sequence is shown, tags or fusion partners need not be part of it.

By UniProt entry, the sequences of proteins in these tests, tags left out.
UniProt Q9FX32: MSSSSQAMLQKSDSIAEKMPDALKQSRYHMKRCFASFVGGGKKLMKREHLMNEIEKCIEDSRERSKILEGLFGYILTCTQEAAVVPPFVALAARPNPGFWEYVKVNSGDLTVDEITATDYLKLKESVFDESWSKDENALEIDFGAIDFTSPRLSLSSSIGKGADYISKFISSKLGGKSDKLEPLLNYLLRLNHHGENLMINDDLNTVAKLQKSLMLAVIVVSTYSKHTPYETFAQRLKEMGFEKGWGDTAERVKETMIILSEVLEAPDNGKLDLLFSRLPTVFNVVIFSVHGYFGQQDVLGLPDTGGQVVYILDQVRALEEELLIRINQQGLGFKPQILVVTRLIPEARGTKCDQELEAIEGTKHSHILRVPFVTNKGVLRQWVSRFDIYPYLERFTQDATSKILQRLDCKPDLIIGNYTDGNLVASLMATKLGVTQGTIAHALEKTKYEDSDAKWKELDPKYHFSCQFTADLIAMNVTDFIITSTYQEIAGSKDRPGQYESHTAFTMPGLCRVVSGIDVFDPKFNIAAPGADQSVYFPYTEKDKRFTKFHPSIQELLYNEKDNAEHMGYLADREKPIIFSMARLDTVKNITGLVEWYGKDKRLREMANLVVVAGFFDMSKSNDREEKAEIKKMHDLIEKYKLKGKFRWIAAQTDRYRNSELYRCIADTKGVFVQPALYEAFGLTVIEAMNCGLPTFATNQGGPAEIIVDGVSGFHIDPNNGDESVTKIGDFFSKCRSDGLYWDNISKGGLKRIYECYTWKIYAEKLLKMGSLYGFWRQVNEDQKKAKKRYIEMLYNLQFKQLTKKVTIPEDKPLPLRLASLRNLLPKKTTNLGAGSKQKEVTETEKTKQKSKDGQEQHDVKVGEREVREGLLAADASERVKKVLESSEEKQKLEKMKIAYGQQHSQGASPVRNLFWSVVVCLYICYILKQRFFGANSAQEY

Key:
Assay in all cases: co-IP; transient co-expression in N. benthamiana, 2 d after infiltration; lysis and washes in RIPA buffer; GFP-Trap_A at 4 °C for 1 h; immunoblot with Flag and GFP antibodies
[1] = biological target: T1, PDLP6-YFP (Arabidopsis thaliana) (UniProt Q9ZU94)
T1 sequence: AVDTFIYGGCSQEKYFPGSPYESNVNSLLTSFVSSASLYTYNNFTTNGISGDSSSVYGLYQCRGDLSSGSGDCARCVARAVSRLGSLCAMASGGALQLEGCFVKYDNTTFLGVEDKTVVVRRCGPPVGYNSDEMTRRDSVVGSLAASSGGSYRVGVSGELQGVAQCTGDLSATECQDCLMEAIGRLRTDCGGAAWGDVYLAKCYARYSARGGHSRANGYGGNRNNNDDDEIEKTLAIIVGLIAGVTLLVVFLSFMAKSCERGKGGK

[2] = biological target: T2, PDLP7-YFP (Arabidopsis thaliana) (UniProt Q0WPN8)
T2 sequence: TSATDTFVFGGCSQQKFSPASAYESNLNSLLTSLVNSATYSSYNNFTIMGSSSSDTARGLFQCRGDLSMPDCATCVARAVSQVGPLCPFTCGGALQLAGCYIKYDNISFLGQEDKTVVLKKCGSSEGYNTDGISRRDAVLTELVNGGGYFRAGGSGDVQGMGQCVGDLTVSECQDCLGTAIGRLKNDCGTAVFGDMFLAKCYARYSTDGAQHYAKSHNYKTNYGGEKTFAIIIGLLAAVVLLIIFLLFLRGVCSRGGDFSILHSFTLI

[3] = biological target: T3, PDLP5-YFP (Arabidopsis thaliana) (UniProt Q8GUJ2)
T3 sequence: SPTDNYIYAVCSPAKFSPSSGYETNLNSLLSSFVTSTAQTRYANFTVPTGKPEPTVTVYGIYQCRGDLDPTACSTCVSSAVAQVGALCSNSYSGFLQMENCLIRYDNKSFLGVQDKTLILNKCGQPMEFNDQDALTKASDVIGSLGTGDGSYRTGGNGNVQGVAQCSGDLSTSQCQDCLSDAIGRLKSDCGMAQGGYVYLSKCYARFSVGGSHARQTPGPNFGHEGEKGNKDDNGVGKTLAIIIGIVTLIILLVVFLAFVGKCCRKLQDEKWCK

Question: For “SUS6-HF (from UniProt Q9FX32 1-942) (enzyme)”, which binding [1] is on record?
Answer: Its binding is “binds”.

Question: And the binding [2]?
Answer: The binding was “no binding”.

Question: And the binding [3]?
Answer: Its binding is “binds”.
